One compound from patent US6696486B1, “Medical use for atypical β-adrenoceptor agonists” (Glaxo Group Limited, priority 1992, dated 2004) can be followed below.

The subject of this data set is indomethacin-induced antral damage. The data set is described as follows: indomethacin-induced gastric antral lesions in the re-fed rat (Method 2). Type of data set: in vivo. As to conditions: (S)-propranolol 10 mg/kg i.p. From the text:
An experimental model in which atypical beta-adrenoceptor agonists may be shown to be of use in the treatment of gastrointestinal disorders is described below as Method 2. The procedure is based upon that described by H. Satoh et. al., Gastroenterology, 81, 719-725 (1981) in which the effect of compounds on indomethacin-induced gastric antral lesions in the re-fed rat is investigated. Indomethacin is an example of the class of compound known as non-steroidal anti-inflammatory drugs (NSAIDs), the use of which is frequently associated with gastrointestinal ulcers.
Food (but not water) is withheld from female random hooded rats (70-120 g) for 24 hours and then the rats are re-fed with Rat and Mouse No. 1 Maintenance Diet. […]
The rat's stomach is removed (with a small amount of duodenum attached), opened along the greater curvature and the contents removed by washing with 0.9% w/v sodium chloride solution (saline). The opened stomach is pinned out (mucosal surface uppermost) on a polystyrene mat and the area of damage assessed by placing a grid (composed of 1 mm squares) over the antral region. […] The total area of antral damage is then expressed as a percentage of the total surface area of the antrum.
The protective effect of the test compound on indomethacin-induced antral damage is calculated as a percentage using the following equation: [formula]

`COC(=O)COc1ccc(CC(C)NCC(O)c2cccc(Cl)c2)cc1` (stereo not shown) [BRL 35135, N-[2-(4-carbomethoxymethoxyphenyl)-1-methylethyl]-2-hydroxy-2-(3-chlorophenyl)ethanamine]: the “effect of (S)-isomer of propranolol on the responses of BRL35135” value is reported as “no effect”.
